# PubChem BioAssay AID1259424, University of Nebraska Medical Center, 2018
# Purpose: 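Find knockdowns that reproduce the expression shifts seen after KSR1 loss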 (primary screen)
# Cell system: human HCT116 colon cancer cells
# Reagents: siRNA pool against human genes, 50 nM
# Measured: 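Log2 levels of six mRNAs (branched-DNA multiplex), adjusted by two reference genes and the non-targeting median, then scored against the average KSR1 knockdown pattern as Pearson r and euclidean distance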
# Reading the numbers: mean correlation with KSR1 profile and KSR1 correlation: higher = expression change more like KSR1 knockdown; mean distance from KSR1 profile: higher = expression change less like KSR1 knockdown
# The deposit covers about 14,000 reagents; below is a part drawn at random. 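Higher correlation or smaller distance means closer resemblance to KSR1 loss; control wells, including KSR1 knockdowns, recur on many plates.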 Not given: the time to read-out.
Gene,mean correlation with KSR1 profile,mean distance from KSR1 profile,"KSR1 correlation, replicate 1","KSR1 correlation, replicate 2","KSR1 correlation, replicate 3"
BID (BH3 interacting domain death agonist),-0.383,2.3,-0.217,-0.514,-0.395
TXNDC9 (thioredoxin domain containing 9),0.211,2.48,0.29,0.0499,0.278
UBQLN2 (ubiquilin 2),-0.279,2.18,-0.661,-0.225,-0.275
KMT5B (lysine methyltransferase 5B),-0.508,2.97,-0.421,-0.258,-0.322
TPH1 (tryptophan hydroxylase 1),-0.345,2.68,-0.0784,-0.577,-0.235
SMAD6 (SMAD family member 6),0.394,2.58,0.251,0.408,0.444
A2M (alpha-2-macroglobulin),-0.973,1.42,-0.822,-0.756,-0.621
IQGAP1 (IQ motif containing GTPase activating protein 1),0.524,2.73,0.373,0.25,0.675
FUT2 (fucosyltransferase 2 (H blood group)),-0.626,2.51,-0.488,-0.621,-0.613
PNO1 (partner of NOB1 homolog),-0.0655,2.61,-0.129,-0.0644,-0.154
SPIB (Spi-B transcription factor),0.218,2.7,0.00754,0.45,0.4
"PRR7 (proline rich 7, synaptic)",0.358,1.71,0.359,0.153,-0.186
PCYOX1L (prenylcysteine oxidase 1 like),0.0113,1.85,-0.226,-0.119,-0.0461
MKI67 (marker of proliferation Ki-67),0.416,2.06,0.566,-0.282,0.429
ACOT7 (acyl-CoA thioesterase 7),-0.478,2.59,-0.431,-0.423,-0.607
KLHDC10 (kelch domain containing 10),0.389,1.33,0.398,0.269,0.308
ATP5MG (ATP synthase membrane subunit g),-0.322,2.11,-0.13,-0.503,-0.379
XCR1 (X-C motif chemokine receptor 1),0.399,1.62,0.33,0.511,0.428
ABCC2 (ATP binding cassette subfamily C member 2),-0.0678,2.03,0.101,-0.198,-0.142
DAP (death associated protein),-0.53,2.03,-0.569,-0.577,-0.631
CHRFAM7A (CHRNA7 (exons 5-10) and FAM7A (exons A-E) fusion),-0.473,1.8,-0.548,-0.427,-0.547
HEY2,0.155,1.98,-0.182,0.0791,0.546
PSAP (prosaposin),0.255,1.68,0.191,0.485,0.358
FBXO28 (F-box protein 28),0.364,2.63,0.321,0.334,0.424
LY6G6D (lymphocyte antigen 6 family member G6D),-0.2,3.77,-0.0612,0.0169,-0.34
PFN1 (profilin 1),-0.381,2,-0.553,-0.621,-0.326

An excerpt from above, limited to “KSR1 correlation, replicate 3”.
UBQLN2 (ubiquilin 2): -0.275
KMT5B (lysine methyltransferase 5B): -0.322
TPH1 (tryptophan hydroxylase 1): -0.235
SMAD6 (SMAD family member 6): 0.444
A2M (alpha-2-macroglobulin): -0.621
IQGAP1 (IQ motif containing GTPase activating protein 1): 0.675
FUT2 (fucosyltransferase 2 (H blood group)): -0.613
PNO1 (partner of NOB1 homolog): -0.154

Further reagents follow.
Gene,mean correlation with KSR1 profile,mean distance from KSR1 profile,"KSR1 correlation, replicate 1","KSR1 correlation, replicate 2","KSR1 correlation, replicate 3"
CACNG8 (calcium voltage-gated channel auxiliary subunit gamma 8),0.0982,2.45,0.368,0.241,0.048
COG1 (component of oligomeric golgi complex 1),-0.414,4.47,-0.473,-0.314,-0.312
FCER2 (Fc epsilon receptor II),0.0216,1.14,0.202,-0.48,0.35
MMP8 (matrix metallopeptidase 8),0.11,1.6,0.145,0.278,-0.324
PTCD2 (pentatricopeptide repeat domain 2),0.828,0.957,0.873,0.783,0.822
QARS1 (glutaminyl-tRNA synthetase 1),0.00883,2.92,-0.0518,-0.119,0.341
SERPINA10 (serpin family A member 10),0.23,4.04,0.129,0.324,0.277
HOXB4 (homeobox B4),-0.162,2.18,-0.19,-0.0145,-0.182
TESK1 (testis associated actin remodelling kinase 1),-0.286,1.96,-0.0738,-0.0877,-0.563
PTMS (parathymosin),-0.548,2.07,-0.515,-0.444,-0.493
LINC00525 (long independently transcribed non-coding RNA 525),0.366,3.24,0.31,0.315,0.168
RECQL (RecQ like helicase),-0.0872,1.72,-0.000293,-0.0471,0.073
NLRC5 (NLR family CARD domain containing 5),0.641,1.1,0.504,0.614,0.733
GLIPR1 (GLI pathogenesis related 1),0.807,0.7,0.794,0.454,0.811
TRNAU1AP (tRNA selenocysteine 1 associated protein 1),-0.879,5.07,-0.318,-0.595,-0.694
PTAFR (platelet activating factor receptor),0.636,2.15,0.692,0.754,0.506
YPEL1 (yippee like 1),0.741,2.27,0.704,0.633,0.6
CLSTN1 (calsyntenin 1),-0.551,2.78,-0.586,-0.673,-0.567
ECSIT (ECSIT signaling integrator),-0.0501,2.01,0.199,-0.14,-0.0802
MCHR2 (melanin concentrating hormone receptor 2),0.691,1.47,0.596,0.794,0.509
CRYBB3 (crystallin beta B3),-0.357,2.31,-0.347,-0.198,-0.549
COX10,0.7,2.66,0.25,0.251,0.676
TTK (TTK protein kinase),-0.185,4.16,0.0791,-0.0317,-0.752
PDHA1 (pyruvate dehydrogenase E1 subunit alpha 1),0.21,2.61,0.251,0.17,0.15
